Data as given in article PMC4839765.
Results are given in words; binding and its absence hold for the method and conditions named. Binding seen in cells or lysates may run through a third protein. Some binding calls cover weakened binding; strength is not graded here. Where a sequence is shown, tags or fusion partners need not be part of it.

The chains behind the UniProt entries cited, without tags or fusion partners. Residues count along the entry.
UniProt P06731, residues 35-685: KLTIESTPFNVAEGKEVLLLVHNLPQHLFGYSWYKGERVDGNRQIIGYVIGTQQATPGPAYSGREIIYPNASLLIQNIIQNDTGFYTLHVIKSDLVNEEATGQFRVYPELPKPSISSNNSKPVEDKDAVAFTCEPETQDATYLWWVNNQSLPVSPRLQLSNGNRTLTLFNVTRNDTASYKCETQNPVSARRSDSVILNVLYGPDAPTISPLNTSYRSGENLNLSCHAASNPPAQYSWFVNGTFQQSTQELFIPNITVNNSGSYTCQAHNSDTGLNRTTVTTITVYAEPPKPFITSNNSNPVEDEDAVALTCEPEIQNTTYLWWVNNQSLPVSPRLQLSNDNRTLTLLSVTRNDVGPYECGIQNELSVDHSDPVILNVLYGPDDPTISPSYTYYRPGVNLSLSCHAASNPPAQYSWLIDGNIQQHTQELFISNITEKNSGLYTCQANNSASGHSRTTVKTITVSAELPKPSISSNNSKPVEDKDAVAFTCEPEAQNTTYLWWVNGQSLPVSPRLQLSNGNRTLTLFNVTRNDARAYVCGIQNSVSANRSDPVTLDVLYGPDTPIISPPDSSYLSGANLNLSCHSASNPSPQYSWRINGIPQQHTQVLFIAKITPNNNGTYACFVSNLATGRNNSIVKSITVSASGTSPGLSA

Target: CEA wild type (FL) (human) (UniProt P06731)
Assay: co-IP; HCT116 cells co-transfected with CEA (FL, N-B2, N-A3) and HA-TGFBR1-FL or HA-TGFBR1-del 1–104, 48 h; lysis in 20mM Tris, 100mM NaCl, 0.5% Nonidet P-40, 0.5% Triton X-100, 1mM EDTA; IP with CEA antibody and protein G plus agarose at 4°C; immunoblotting

binding: binds
B1: HA-TGFBR1-FL (receptor, UniProt P36897 34-503)
chain: LQCFCHLCTKDNFTCVTDGLCFVSVTETTDKVIHNSMCIAEIDLIPRDRPFVCAPSSKTGSVTTTYCCNQDHCNKIELPTTVKSSPGLGPVELAAVIAGPVCFVCISLMLMVYICHNRTVIHHRVPNEEDPSLDRPFISEGTTLKDLIYDMTTSGSGSGLPLLVQRTIARTIVLQESIGKGRFGEVWRGKWRGEEVAVKIFSSREERSWFREAEIYQTVMLRHENILGFIAADNKDNGTWTQLWLVSDYHEHGSLFDYLNRYTVTVEGMIKLALSTASGLAHLHMEIVGTQGKPAIAHRDLKSKNILVKKNGTCCIADLGLAVRHDSATDTIDIAPNHRVGTKRYMAPEVLDDSINMKHFESFKRADIYAMGLVFWEIARRCSIGGIHEDYQLPYYDLVPSDPSVEEMRKVVCEQKLRPNIPNRWQSCEALRVMAKIMRECWYANGAARLTALRIKKTLSQLSQQEGIKM
